# Source: PubChem BioAssay AID651640 (Broad Institute, 2012)
# Values joined by “and” are separate entries in the source; they are usually repeats but may differ in a detail not shown here. Equal values may be shown once. In all, about 350,000 compounds went through this assay and about 6,000 (1.7%) were called active. The shares of active, inactive and inconclusive entries below differ from those in the screen. Rule as the data show it: active = CPE inhibition above about 20% (passing the limit was not always enough); inconclusive = no clear call, values can overlap the other calls; tested in BHK-21 cells. Some structures have more than one record in an assay (separate samples or runs), and their calls can disagree.
# Assay: protection of cells from dengue 2 killing – plate reader, single concentration, primary screen (AID 651640);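 also: 0% = median of neutral control wells and 100% = median of positive control wells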
# Settings: DENV2-infected cells, cytopathic effect rescue, at 9.99 µM, stronger effect = higher value
row,Compound,CPE inhibition
1,O=C(C1CCC1)N1CC[C@@H]2[C@H]1c1cc(C#Cc3cccc(F)c3)ccc1N[C@@H]2CO,inconclusive: 37.2%
2,CC(C)(C)[S@@](=O)N1Cc2cc(C(=O)NCc3ccc4c(c3)OCO4)nc(-c3cccc(-c4ccncc4)c3)c2[C@H]1CCO,inactive: -5.03%
3,CN1CCN(C(c2ccccn2)c2cc(Cl)c3cccnc3c2O)CC1 (configuration not stated),inactive: 4.31%
4,CC(C)NC(=O)Nc1ccc2c(c1)C(=O)N([C@@H](C)CO)C[C@H](C)[C@H](CN(C)CC1CCCCC1)OCCCC[C@H](C)O2,inconclusive: 22.7%
5,O=C(Nc1ccccc1F)N[C@H]1C=C[C@H](CC(=O)N2CCCCC2)O[C@@H]1CO,inconclusive: 25%
6,CC(=O)N(C)C[C@@H]1Oc2ncc(-c3ccc(F)cc3)cc2C(=O)N([C@H](C)CO)C[C@H]1C,active: 58.9%
7,CC1(C(=O)NCCc2c[nH]c3ccccc23)CCN1Cc1csc2ccccc12 (configuration not stated),inconclusive: 56.5%
8,N#Cc1ccccc1NC(=O)C1SC(=Nc2ccccc2)C(C(=O)Nc2ccc(Cl)cc2)=C1N (configuration not stated),inactive: 4.49%
9,O=C(COC(=O)C1(c2ccccc2)CC1)NNC(=O)c1ccccc1,inconclusive: 70.2%
10,Cc1cc(C)n(C(C)CNC(=O)c2ccc3c(c2)OCO3)n1 (configuration not stated),inconclusive: 26.7%
11,COc1ccc(OC)c(CNS(=O)(=O)c2ccccc2Br)c1,inconclusive: 24.3%
12,O=C(N/N=C/C=C/c1ccccc1[N+](=O)[O-])c1cc(-c2ccccc2)n[nH]1,inactive: -3.56%
13,CCCNC(=O)C1(C)CCN1C(=O)C/C=C/c1ccccc1 (configuration not stated),inconclusive: 46.4%
14,Cc1noc(C)c1NC(=O)N(C)C[C@H]1Oc2ccc(NC(=O)c3ccncc3)cc2CC(=O)N([C@H](C)CO)C[C@@H]1C,inconclusive: 28.4%
15,C[C@H](CO)N1C[C@H](C)[C@H](CN(C)S(=O)(=O)c2ccc(F)cc2)OCCCC[C@H](C)Oc2ccc(NC(=O)c3ccccc3)cc2C1=O,active: 28.3%
16,CCN(C[C@H]1N[C@@](C)(C(=O)OC)[C@H]2C(=O)N(C)C(=O)[C@@H]12)C(=O)COC,inconclusive: 32.4%
17,CCn1c(CN2CCOCC2)nnc1SCC(=O)Nc1cccc(C)c1,inconclusive: 20.4%
18,S=C(Nc1ccccc1)N1CCN(C/C=C/c2ccccc2)CC1,inconclusive: 24%
19,C[C@@H]1CCCCO[C@H](CN(C)C)[C@@H](C)CN([C@H](C)CO)C(=O)c2cc(NS(=O)(=O)c3cn(C)cn3)ccc2O1,inactive: -7.96%
20,CCC(=O)N(C)C[C@@H]1Oc2ncc(C#CC3(O)CCCC3)cc2C(=O)N([C@H](C)CO)C[C@@H]1C,inactive: -2.68%
21,CNC(=O)C[C@@H]1CC[C@H]2[C@@H](COC[C@H](O)CN2C(=O)Nc2ccc3c(c2)OCO3)O1,inactive: 1.76%
22,O=C1c2ccccc2S(=O)(=O)c2cc(C(=O)N3CCN(c4ccc(Cl)cn4)CC3)ccc21,active: 42.4%
23,CCCC(=O)Nc1ccc2c(c1)C(=O)N(C)[C@H]1CC[C@@H](CC(=O)NCCCN(C)C)O[C@H]1CO2,inactive: -1.38%
24,CCOc1ccccc1NS(=O)(=O)c1ccc(-c2cnc(C3CC3)o2)cc1,inactive: -4.32%

row,Compound,CPE inhibition
1,C[C@H](NC(=O)c1nc[nH]c1C(=O)N[C@@H](CCCCNC(=O)OC(C)(C)C)C(=O)OC(C)(C)C)C(=O)OCc1ccccc1,inconclusive: 23.5%
2,CCOC(=O)C1(CCOc2ccccc2)CCN(Cc2cccc(-n3cccn3)c2)CC1,inactive: 3.76%
3,Cc1ccc(S(=O)(=O)N(C)C[C@@H]2OCCCC[C@@H](C)Oc3ccc(NS(=O)(=O)c4ccccc4)cc3C(=O)N([C@H](C)CO)C[C@H]2C)cc1,inactive: 2.73%
4,CCS(=O)(=O)N1CCC2(CC1)CN(S(=O)(=O)c1ccccc1)[C@H](CO)c1c2c2ccc(OC)cc2n1C,inconclusive: 20.4%
5,CCCNC(=O)C[C@@H]1CC[C@@H]2[C@H](COC[C@H](O)CN2Cc2ccncc2)O1,inactive: -4.66%
6,CC(=O)c1ccc(NC(=O)CN2C(=O)NC3(CCCc4ccccc43)C2=O)cc1 (configuration not stated),inconclusive: 25.2%
7,COc1ccc(NC(=O)Nc2ccc3c(c2)[C@H]2C[C@H](CC(=O)NCC(F)(F)F)O[C@@H](CO)[C@H]2O3)cc1,inconclusive: 54.2%
8,O=C(N1CCOCC1)[C@]1(Cc2ccccc2)N=C(c2ccc(OCCCO)cc2)O[C@@H]1c1ccccc1,inactive: 17.7%
9,O=c1c(-c2cccnc2)nc2ccccc2n1C(CCc1ccccc1)c1nc2ccccc2[nH]1 (configuration not stated),inconclusive: 22.9%
10,O=C(C[C@H]1CC[C@H](NC(=O)C2CCC2)[C@@H](CO)O1)NC1CCC1,active: 40.5%
11,COCCn1c(SCC(=O)N2CCCCCC2)nc2c(c1=O)SCC2,inconclusive: 26.2%
12,Cc1c(Cl)cccc1NC(=O)CSc1nnc(C)n1CC1CCCO1 (configuration not stated),inconclusive: 51.4%
13,COCCNC(=O)C(=O)N/N=C(\C)CC(=O)Nc1cccc(C(F)(F)F)c1,inconclusive: 21.3%
14,COC(=O)C1=C(N)Oc2cc(C)[nH]c(=O)c2C1c1ccc(Cl)cc1 (configuration not stated),inconclusive: 35%
15,O=[N+]([O-])c1cccc(NC(=S)N2CCc3ccccc32)c1,active: 69.5%
16,OCC[C@H]1C[C@H](O)[C@@H](O)[C@@]2(Cc3ccccc3CCO2)O1,inconclusive: 47%
17,CN1CCN(C(=O)C[C@@H]2CC[C@@H]3[C@@H](COc4ccc(NC(=O)C5CCCC5)cc4C(=O)N3C)O2)CC1,inconclusive: 25.3%
18,CCS(=O)(=O)Nc1ccc2c(c1)C(=O)N(C)[C@H]1CC[C@H](CC(=O)Nc3ccccc3C)O[C@@H]1CO2,inconclusive: 41.8%
19,COCCNC(=O)C[C@@H]1C=C[C@@H](NC(=O)NC2CCCCC2)[C@H](CO)O1,inactive: 12.1%
20,O=C(C[C@H]1CC[C@@H]2[C@H](COC[C@H](O)CN2Cc2ccc(C(F)(F)F)cc2)O1)N1CCc2ccccc2C1,inactive: 1.1%
21,COc1ccc(-c2cn(CC[C@H]3CC[C@H](NC(=O)CCN4CCCCC4)[C@H](CO)O3)nn2)cc1,inactive: 0.814%
22,C[C@H](NC(=O)c1nc[nH]c1C(=O)NCc1ccc(CNC(=O)OC(C)(C)C)cc1)C(=O)OC(C)(C)C,inconclusive: 20%
23,Cc1cc(O)c(C(=O)/C=C/c2cccc([N+](=O)[O-])c2)c(=O)o1,inactive: -9.71%
24,Cc1ccc(S(=O)(=O)N2CCCCC2)cc1NC(=O)CSc1ncccn1,inconclusive: 63.7%

# In the list so far, these contain an aryl methoxy group:
row,Compound,CPE inhibition
11,COc1ccc(OC)c(CNS(=O)(=O)c2ccccc2Br)c1,inconclusive: 24.3%
4,CCS(=O)(=O)N1CCC2(CC1)CN(S(=O)(=O)c1ccccc1)[C@H](CO)c1c2c2ccc(OC)cc2n1C,inconclusive: 20.4%
7,COc1ccc(NC(=O)Nc2ccc3c(c2)[C@H]2C[C@H](CC(=O)NCC(F)(F)F)O[C@@H](CO)[C@H]2O3)cc1,inconclusive: 54.2%
21,COc1ccc(-c2cn(CC[C@H]3CC[C@H](NC(=O)CCN4CCCCC4)[C@H](CO)O3)nn2)cc1,inactive: 0.814%

# Remaining list, next part:

row,Compound,CPE inhibition
1,CC[C@H](C)Cc1cn([C@@H](CCCCN)C(=O)NCCCCCCCCCCC(=O)N2CCNCC2)nn1,inactive: -3.9%
2,O=C(Cn1nnc(-c2ccccc2F)n1)Nc1ccc2c(c1)OCCO2,inconclusive: 36%
3,Cc1cc(C)nc(Nc2nc(C(N)Cc3ccc(Cl)cc3)cs2)n1 (configuration not stated),inconclusive: 22.9%
4,CCNc1nc(NCC)nc(C(=O)OCCO)n1,active: 28.8%
5,COc1ccc(CC(=O)OCC(=O)Nc2ccc3[nH]c(=O)[nH]c3c2)cc1OC,inactive: -0.853%
6,CC(=O)c1c(C)nc(-c2ccc(Cl)cc2)nc1N,inactive: -2.04%
7,COc1ccccc1NS(=O)(=O)c1cccc(C(=O)NCc2ccncc2)c1,inconclusive: 28.4%
8,COc1ccccc1NC(=O)N[C@H]1CC[C@H](CCn2cc(-c3ccccc3OC)nn2)O[C@H]1CO,inconclusive: 51.3%
9,COc1ccc(NC(=O)N(C)C[C@H]2OCCCC[C@H](C)Oc3ccc(NC(=O)NC4CCCCC4)cc3C(=O)N([C@@H](C)CO)C[C@@H]2C)cc1,active: 76.4%
10,COc1ccc(CN(C)C[C@H]2OCCCC[C@H](C)Oc3ccc(NS(=O)(=O)c4ccc(OC)cc4)cc3C(=O)N([C@@H](C)CO)C[C@H]2C)cc1,inactive: 6.52%
11,N#C[C@@H]1[C@H](c2ccc(-c3ccc(F)cc3)cc2)[C@@H](CO)N1c1nc(-c2ccccc2)cs1,inconclusive: 41.5%
12,CC(CNCCCn1cnc2c(OCc3ccccc3)ncnc21)c1ccccc1 (configuration not stated),inactive: 5.34%
13,CCOC(=O)CNC(=O)OC1CCN2Cc3ccccc3N=C12 (configuration not stated),inconclusive: 23.4%
14,CCN(CC(=O)Nc1cc(S(=O)(=O)N2CCCCC2)ccc1C)Cc1ccccc1,inconclusive: 65.7%
15,CC(OC(=O)c1ccc2c(=O)n3c(nc2c1)CCCCC3)C(=O)Nc1ncc(Cl)cc1Cl (configuration not stated),inconclusive: 37.1%
16,CCc1noc(C)c1C(=O)OC(C)C(=O)Nc1ccc2c(c1)OCO2 (configuration not stated),inconclusive: 30.8%
17,CCCC#Cc1ccc([C@@H]2[C@@H](C#N)N(C(=O)C3CCOCC3)[C@H]2CO)cc1,inconclusive: 35.8%
18,O=C(/C=C/c1cccnc1)c1cccc(O)c1,inactive: 4.76%
19,C[C@H](CO)N1C[C@H](C)[C@@H](CN(C)Cc2ccc(-c3ccccc3)cc2)Oc2ccc(NS(=O)(=O)c3ccc(F)cc3)cc2C1=O,inactive: 0.608%
20,O=C(Nc1ccc(C(F)(F)F)cc1)N1C[C@@H]2N[C@H](C1)C2c1ccc(-c2cccc(F)c2)cc1 (some centres not stated),inconclusive: 36.2%
21,C[C@@H]1CNC(=O)c2c(C(=O)Nc3ccc(CNC(=O)OC(C)(C)C)cc3)ncn21,inconclusive: 46.7%
22,COc1ccc(/C=C/C(=O)NCCSCc2ccco2)cc1OC,inconclusive: 20.5%
23,C[C@@H]1CN([C@H](C)CO)S(=O)(=O)c2ccc(Br)cc2O[C@@H]1CN(C)C(=O)CN1CCOCC1,inactive: 0.789% and active: 55.4%
24,Cc1sc2nc(-c3ccccn3)[nH]c(=O)c2c1-c1ccccc1,inactive: -0.826%

# Shown with bars between the fields: entries from further up.
row | Compound | CPE inhibition
7 | COc1ccccc1NS(=O)(=O)c1cccc(C(=O)NCc2ccncc2)c1 | inconclusive: 28.4%
12 | CC(CNCCCn1cnc2c(OCc3ccccc3)ncnc21)c1ccccc1 (configuration not stated) | inactive: 5.34%
